Measurements reported in PubChem BioAssay AID1259308 (NCATS, 2017).

Purpose: 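Knock-downs that increase output of a recombinant reporter protein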 (primary screen)
Cell system: human HEK293 embryonic kidney cells stably expressing firefly luciferase (HEK-CMV-Luc2-Hygro)
Knock-down reagent: single siRNA against human genes, 0.8 pmol siRNA per well
Timing: 72 h
Detection: 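Luciferase light (ONE-Glo) measured on one replicate plate set and viability (CellTiter-Glo) on the other, scaled to a negative control siRNA, with robust z-scores and luciferase per cell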
Reading the numbers: total luciferase, z-score and total luciferase, % of control: higher = more reporter protein produced; luciferase per cell, z-score: higher = more reporter output per viable cell; viable cells, % of control: higher = more viable cells
Call rule: 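An siRNA counts as active if its total luciferase robust z-score exceeds 3; genes with two or more such siRNAs out of three were retested with fresh siRNAs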
Meaning of the calls: active = raised luciferase; inactive = no rise
The whole screen tested about 59,000 reagents; this is a part drawn at random. Over the whole deposit, about 1,510 (2.6%) were called active. 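Calls use total luciferase alone and ignore viability, so some active siRNAs may act by altering cell number.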 Reagents against one gene are numbered here.

target	reagent	total luciferase, z-score	total luciferase, % of control	luciferase per cell, z-score	viable cells, % of control	Outcome
NFAT5 (nuclear factor of activated T cells 5)	1	-0.61	69.7	-0.362	85.7	inactive
NFAT5 (nuclear factor of activated T cells 5)	2	-0.907	63.8	-0.691	85.6	inactive
NFAT5 (nuclear factor of activated T cells 5)	3	-0.36	74.7	0.422	74.7	inactive
ACAP3 (ArfGAP with coiled-coil, ankyrin repeat and PH domains 3)	1	-1.37	54.6	-0.542	70.4	inactive
ACAP3 (ArfGAP with coiled-coil, ankyrin repeat and PH domains 3)	2	-0.35	74.9	-0.527	96.2	inactive
ACAP3 (ArfGAP with coiled-coil, ankyrin repeat and PH domains 3)	3	-0.495	72	-0.555	93.2	inactive
LINC01588 (long independently transcribed non-coding RNA 1588)	1	0.388	89.6	0.939	78.2	inactive
LINC01588 (long independently transcribed non-coding RNA 1588)	2	0.163	85.1	0.454	84.4	inactive
LINC01588 (long independently transcribed non-coding RNA 1588)	3	-0.119	79.5	-0.953	114	inactive
C6orf58 (chromosome 6 open reading frame 58)	1	2.08	123	1.76	86.8	inactive
C6orf58 (chromosome 6 open reading frame 58)	2	0.0924	83.7	0.178	89.3	inactive
C6orf58 (chromosome 6 open reading frame 58)	3	-0.888	64.2	-1.13	96.7	inactive
SKAP1 (src kinase associated phosphoprotein 1)	1	0.825	98.3	1.43	75.4	inactive
SKAP1 (src kinase associated phosphoprotein 1)	2	-0.513	71.7	-0.605	94	inactive
SKAP1 (src kinase associated phosphoprotein 1)	3	-0.0447	81	-0.709	109	inactive
RALA (RAS like proto-oncogene A)	1	-0.0197	81.5	-0.766	111	inactive
RALA (RAS like proto-oncogene A)	2	2.1	124	1.63	89.9	inactive
RALA (RAS like proto-oncogene A)	3	-0.798	66	-0.895	93.4	inactive
PSMA1 (proteasome 20S subunit alpha 1)	1	0.336	88.6	1.23	71.5	inactive
PSMA1 (proteasome 20S subunit alpha 1)	2	1.53	112	2.4	66.6	inactive
PSMA1 (proteasome 20S subunit alpha 1)	3	-0.0157	81.6	1.4	63.1	inactive
RNF19B (ring finger protein 19B)	1	0.167	85.2	1.11	71.2	inactive
RNF19B (ring finger protein 19B)	2	-0.458	72.8	0.86	64.8	inactive
RNF19B (ring finger protein 19B)	3	1.34	108	1.34	85.3	inactive
RPL3L (ribosomal protein L3 like)	1	0.253	86.9	0.411	87.2	inactive
RPL3L (ribosomal protein L3 like)	2	-0.763	66.7	0.408	67	inactive
RPL3L (ribosomal protein L3 like)	3	1.21	106	0.899	93.4	inactive
HSD3B1	1	0.345	88.8	0.23	93.4	inactive
HSD3B1	2	-0.333	75.3	-0.387	93.1	inactive
HSD3B1	3	-1.33	55.4	-1.71	97	inactive
TREM2 (triggering receptor expressed on myeloid cells 2)	1	-0.1	79.9	-0.317	97.1	inactive
TREM2 (triggering receptor expressed on myeloid cells 2)	2	-1.53	51.5	-1.66	89.1	inactive
TREM2 (triggering receptor expressed on myeloid cells 2)	3	1.61	114	1.42	87.5	inactive
GH1 (growth hormone 1)	1	-1.24	57.2	-0.299	69.2	inactive
GH1 (growth hormone 1)	2	-0.322	75.5	-0.066	85.8	inactive
GH1 (growth hormone 1)	3	3.62	154	2.08	99.5	active
ZNF81 (zinc finger protein 81)	1	-0.544	71.1	1	61	inactive
ZNF81 (zinc finger protein 81)	2	-0.183	78.2	0.312	80.5	inactive
ZNF81 (zinc finger protein 81)	3	-0.683	68.3	-0.69	91.5	inactive
